Positions count from the first letter of the chain named. These are yes or no findings as the source states them, for the method shown. Binding seen in cells or lysates may run through a third protein. Some results given as binding are weak or reduced against the parent protein; the word gives no strength. For some of these results: Tags and fused reporters may be left off the sequences shown.

Sequences of proteins named here, by UniProt entry; tags and fusion partners are left off. A change or cut given only in a name is not applied to a line headed by its entry. A line that says so, or that is headed by a name, gives the form on record, which may keep a tag or linker. Residues count along the entry.
UniProt Q86WV6: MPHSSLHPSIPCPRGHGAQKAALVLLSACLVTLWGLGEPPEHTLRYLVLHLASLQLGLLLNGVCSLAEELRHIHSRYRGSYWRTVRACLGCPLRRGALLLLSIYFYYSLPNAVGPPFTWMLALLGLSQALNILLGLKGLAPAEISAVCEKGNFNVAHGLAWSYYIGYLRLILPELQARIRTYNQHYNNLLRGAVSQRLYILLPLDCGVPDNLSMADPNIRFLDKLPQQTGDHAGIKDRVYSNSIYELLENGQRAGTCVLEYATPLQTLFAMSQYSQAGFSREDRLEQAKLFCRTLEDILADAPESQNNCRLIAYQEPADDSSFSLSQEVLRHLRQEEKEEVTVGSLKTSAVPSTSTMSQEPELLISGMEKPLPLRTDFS
MYC-tagged N-terminus of STING (aa 1-139): residues 1-139 of Q86WV6
MYC-tagged C-terminus of STING (aa 140-379): residues 140-379 of Q86WV6

In test [1] the target is endogenous CRM1 (human (endogenous in HK1)), O14980. Kind of test: co-IP; endogenous proteins in HK1 cells (control, HMOX1-KO, or HMOX1-KO re-expressing HO-1ΔTMS); treatments: RT, cGAMP; whole-cell lysates immunoprecipitated overnight at 4 °C with the indicated antibodies, Protein A/G magnetic beads. The conditions noted are these: remark: other sources report otherwise.
Test [2] has as its target HA-tagged full-length cGAS (aa 1-522) (UniProt Q8N884). Kind of test: co-IP; HEK293T cells co-transfected with Flag-tagged HO-1 mutants and HA-tagged cGAS or its truncations, under RT; whole-cell lysates.
The target of test [3] is endogenous STING (human (endogenous in HK1)), Q86WV6. Kind of test: co-IP; endogenous proteins in HK1 cells (control, HMOX1-KO, or HMOX1-KO re-expressing HO-1ΔTMS); treatments: RT, cGAMP; whole-cell lysates immunoprecipitated overnight at 4 °C with the indicated antibodies, Protein A/G magnetic beads. The conditions noted are these: remark: other sources report otherwise.
Test [4] has as its target MYC-tagged C-terminus of STING (aa 140-379) (human) (UniProt Q86WV6). Kind of test: co-IP; HEK293T cells co-transfected with MYC-tagged STING or its truncations and Flag-tagged HO-1 or its mutants; whole-cell lysates.
The target of test [5] is MYC-tagged full-length STING (aa 1-379) (human) (UniProt Q86WV6). The description is as above.
Test [6] concerns the target MYC-tagged N-terminus of STING (aa 1-139) (human) (UniProt Q86WV6). The test is described as above.
The target of test [7] is endogenous STING (human (endogenous in HK1)) (UniProt Q86WV6). Kind of test: co-IP; endogenous proteins in HK1 cells (control, HMOX1-KO, or HMOX1-KO re-expressing HO-1ΔTMS); treatments: RT, cGAMP; whole-cell lysates immunoprecipitated overnight at 4 °C with the indicated antibodies, Protein A/G magnetic beads.

B1: endogenous cGAS, Q8N884 1-522 (protein)
chain: MQPWHGKAMQRASEAGATAPKASARNARGAPMDPTESPAAPEAALPKAGKFGPARKSGSRQKKSAPDTQERPPVRATGARAKKAPQRAQDTQPSDATSAPGAEGLEPPAAREPALSRAGSCRQRGARCSTKPRPPPGPWDVPSPGLPVSAPILVRRDAAPGASKLRAVLEKLKLSRDDISTAAGMVKGVVDHLLLRLKCDSAFRGVGLLNTGSYYEHVKISAPNEFDVMFKLEVPRIQLEEYSNTRAYYFVKFKRNPKENPLSQFLEGEILSASKMLSKFRKIIKEEINDIKDTDVIMKRKRGGSPAVTLLISEKISVDITLALESKSSWPASTQEGLRIQNWLSAKVRKQLRLKPFYLVPKHAKEGNGFQEETWRLSFSHIEKEILNNHGKSKTCCENKEEKCCRKDCLKLMKYLLEQLKERFKDKKHLDKFSSYHVKTAFFHVCTQNPQDSQWDRKDLGLCFDNCVTYFLQCLRTEKLENYFIPEFNLFSSNLIDKRSKEFLTKQIEYERNNEFPVFDEF
Consider B1, for which the binding entry in test [1] is on record as “binds”.

B2: Flag-tagged cleaved HO-1 (HO-1ΔTMS) (domain or fragment, UniProt P09601 1-265)
chain: MERPQPDSMPQDLSEALKEATKEVHTQAENAEFMRNFQKGQVTRDGFKLVMASLYHIYVALEEEIERNKESPVFAPVYFPEELHRKAALEQDLAFWYGPRWQEVIPYTPAMQRYVKRLHEVGRTEPELLVAHAYTRYLGDLSGGQVLKKIAQKALDLPSSGEGLAFFTFPNIASATKFKQLYRSRMNSLEMTPAVRQRVIEEAKTAFLLNIQLFEELQELLTHDTKDQSPSRAPGLRQRASNKVQDSAPVETPRGKPPLNTRSQA
Take B2: the binding entry in test [2] is “binds”.

B3: endogenous TBK1, Q9UHD2 1-729 (protein)
chain: MQSTSNHLWLLSDILGQGATANVFRGRHKKTGDLFAIKVFNNISFLRPVDVQMREFEVLKKLNHKNIVKLFAIEEETTTRHKVLIMEFCPCGSLYTVLEEPSNAYGLPESEFLIVLRDVVGGMNHLRENGIVHRDIKPGNIMRVIGEDGQSVYKLTDFGAARELEDDEQFVSLYGTEEYLHPDMYERAVLRKDHQKKYGATVDLWSIGVTFYHAATGSLPFRPFEGPRRNKEVMYKIITGKPSGAISGVQKAENGPIDWSGDMPVSCSLSRGLQVLLTPVLANILEADQEKCWGFDQFFAETSDILHRMVIHVFSLQQMTAHKIYIHSYNTATIFHELVYKQTKIISSNQELIYEGRRLVLEPGRLAQHFPKTTEENPIFVVSREPLNTIGLIYEKISLPKVHPRYDLDGDASMAKAITGVVCYACRIASTLLLYQELMRKGIRWLIELIKDDYNETVHKKTEVVITLDFCIRNIEKTVKVYEKLMKINLEAAELGEISDIHTKLLRLSSSQGTIETSLQDIDSRLSPGGSLADAWAHQEGTHPKDRNVEKLQVLLNCMTEIYYQFKKDKAERRLAYNEEQIHKFDKQKLYYHATKAMTHFTDECVKKYEAFLNKSEEWIRKMLHLRKQLLSLTNQCFDIEEEVSKYQEYTNELQETLPQKMFTASSGIKHTMTPIYPSSNTLVEMTLGMKKLKEEMEGVVKELAENNHILERFGSLTMDGGLRNVDCL
For B3, in test [3], the binding entry is listed as “binds”.

B4: Flag-tagged WT HO-1 (protein, UniProt P09601 1-288)
chain: MERPQPDSMPQDLSEALKEATKEVHTQAENAEFMRNFQKGQVTRDGFKLVMASLYHIYVALEEEIERNKESPVFAPVYFPEELHRKAALEQDLAFWYGPRWQEVIPYTPAMQRYVKRLHEVGRTEPELLVAHAYTRYLGDLSGGQVLKKIAQKALDLPSSGEGLAFFTFPNIASATKFKQLYRSRMNSLEMTPAVRQRVIEEAKTAFLLNIQLFEELQELLTHDTKDQSPSRAPGLRQRASNKVQDSAPVETPRGKPPLNTRSQAPLLRWVLTLSFLVATVAVGLYAM
For the molecule B4, the binding entry in test [4], in test [5] and in test [6] was “binds” throughout.

B5: Flag-tagged HO-1 with Arg113 mutated into alanine (protein, UniProt P09601 1-288)
chain: B4 chain with R113A
Regarding B5, in test [5], the binding entry is “binds”.

B6: Flag-tagged HO-1 with Thr222 mutated into alanine (protein, UniProt P09601 1-288)
chain: B4 chain with T222A
As to B6, in test [5], the binding entry is “binds”.

B7: Flag-tagged HO-1 with Arg100 mutated into alanine (protein, UniProt P09601 1-288)
chain: B4 chain with R100A
Regarding B7, the binding result in test [5] is reported as “binds”.

B8: endogenous HO-1 (full-length, ER-anchored) (protein, UniProt P09601 1-288)
chain: B4 chain
With B8, the binding result in test [7] was “binds”.

B9: Flag-tagged HO-1 with simultaneous mutation of all 5 residues (Tyr97, Arg100, Arg113, Gln212, Thr222) into alanine (protein, UniProt P09601 1-288)
chain: B4 chain with Y97A, R100A, R113A, Q212A, T222A
Consider B9, for which, in test [5], the binding result is recorded as “binds weakly”.

B10: Flag-tagged HO-1 with Tyr97 mutated into alanine (protein, UniProt P09601 1-288)
chain: B4 chain with Y97A
B10: in test [5], the binding entry was “binds”.

B11: Flag-tagged HO-1 with Gln212 mutated into alanine (protein, UniProt P09601 1-288)
chain: B4 chain with Q212A
In the case of B11, the binding result in test [5] is given as “binds”.

The values are drawn from article PMC11601901.
